Data as given in PubChem BioAssay AID1259299 (Sanger Institute, 2017).
Test: 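Kinases and colorectal mutated genes needed by colorectal cancer cells, with or without drugs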 (primary screen). Cells: human CAR1 colorectal cancer cells. Reagents: siRNA pool against human genes. Challenge: anchor drug BYL719 1 µM, cetuximab 5 µg/ml or trametinib 10 nM, or DMSO vehicle alone; exposure length not given. Detection: 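Cell viability as fraction of non-targeting siRNA wells, mean of replicates, with robust z-score and a synergy score for each of three drugs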. Scale: viability robust z-score, knock-down alone and viability, knock-down alone (DMSO): higher = more viable cells. Hit rule: 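a gene is called essential if its knock-down-alone viability z-score drops under -3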. Meaning of the calls: active = essential (knock-down alone); inactive = no change.
The whole screen tested 794 reagents; shown is an unselected part. In the full data, 9 (1.1%) were called active. 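Calls rest on knock-down alone; synergy scores play no part in calls, and no gene passed the synergy cut.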 A number with no mark means an inactive call. Viability is capped at 1. Further read-outs or replicates are left out here. Not given: the amount of reagent, the time to read-out.

target,"viability robust z-score, knock-down alone","viability, knock-down alone (DMSO) (fraction of control)"
NEK5 (NIMA related kinase 5),0.546,0.978
EPHA4 (EPH receptor A4),0.789,1
DCK (deoxycytidine kinase),-0.296,0.9
"ABL1 (ABL proto-oncogene 1, non-receptor tyrosine kinase)",0.789,1
NEK1 (NIMA related kinase 1),0.789,1
MAK (male germ cell associated kinase),-1.55,0.784
UCKL1 (uridine-cytidine kinase 1 like 1),0.789,1
STK32C (serine/threonine kinase 32C),0.718,0.993
PANK4 (pantothenate kinase 4 (inactive)),-2.19,0.725
PASK (PAS domain containing serine/threonine kinase),-1.22,0.814
PTGS1 (prostaglandin-endoperoxide synthase 1),-1.35,0.802
IP6K2 (inositol hexakisphosphate kinase 2),-0.718,0.861
MAP2K2 (mitogen-activated protein kinase kinase 2),0.757,0.997
"MOS (MOS proto-oncogene, serine/threonine kinase)",-0.202,0.908
SYK (spleen associated tyrosine kinase),0.789,1
PRKCG (protein kinase C gamma),-0.124,0.916
MAP3K7 (mitogen-activated protein kinase kinase kinase 7),0.146,0.941
STK4 (serine/threonine kinase 4),0.226,0.948
TWF2 (twinfilin actin binding protein 2),-0.709,0.862
EPHA6 (EPH receptor A6),-1.37,0.8
MAP4K1 (mitogen-activated protein kinase kinase kinase kinase 1),-1.26,0.811
MPP3 (MAGUK p55 scaffold protein 3),-2.16,0.727
SRPK1 (SRSF protein kinase 1),-1.34,0.803
EPHA3 (EPH receptor A3),-1.23,0.814
MAST3 (microtubule associated serine/threonine kinase 3),-0.75,0.858
AMER1 (APC membrane recruitment protein 1),0.789,1
NEK11 (NIMA related kinase 11),0.0507,0.932
EFNA3 (ephrin A3),0.789,1
SRGAP3 (SLIT-ROBO Rho GTPase activating protein 3),0.789,1
PRPS1 (phosphoribosyl pyrophosphate synthetase 1),-0.913,0.843
IKBKG,0.42,0.966
MARK1 (microtubule affinity regulating kinase 1),0.789,1
EFNA4 (ephrin A4),0.789,1
MTOR (mechanistic target of rapamycin kinase),-0.551,0.876

In a second layout: 5 of the entries above
| target | viability robust z-score, knock-down alone | viability, knock-down alone (DMSO) (fraction of control) |
| --- | --- | --- |
| SYK (spleen associated tyrosine kinase) | 0.789 | 1 |
| PRKCG (protein kinase C gamma) | -0.124 | 0.916 |
| MAP3K7 (mitogen-activated protein kinase kinase kinase 7) | 0.146 | 0.941 |
| STK4 (serine/threonine kinase 4) | 0.226 | 0.948 |
| TWF2 (twinfilin actin binding protein 2) | -0.709 | 0.862 |
